{"source": "PubChem BioAssay AID504764 (Drosophila RNAi Screening Center, 2011)", "screen": "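Knock-downs that raise or lower a Notch target reporter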 (primary screen)", "system": "Drosophila Kc167 cells", "reagents": "long dsRNA against Drosophila genes", "duration": "about 5 days (4 days dsRNA, then 24 h after transfection)", "challenge": "transfection of constitutively active membrane-tethered Notch lacking the extracellular domain, read 24 h later", "measurement": "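Firefly luciferase from an E(spl)m3 reporter with active Notch, plus control-promoter and uninduced reporter wells for normalisation; unnormalised counts, duplicate wells a and b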", "reading the numbers": "induced reporter light, run 1, well a and induced reporter light, run 1, well b: higher = more light from the Notch target reporter with active Notch; control promoter light, run 1, well a and control promoter light, run 1, well b: higher = more light from the viral control promoter (cell number, transfection, viability); uninduced reporter light, run 1, well a: higher = more light from the Notch target reporter without active Notch", "hit rule": "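Hit if the duplicate-averaged log2 ratio of induced to control-promoter light gives a plate-wise z beyond ±2, or induced to uninduced beyond ±1.8; weak-control or discordant-duplicate wells dropped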", "calls": "active = modifier hit (raised or lowered Notch signal); inactive = not a hit", "note": "In all, the deposit lists about 22,000 reagents; shown is an unselected part of those that have a named target and a result. Of all reagents, 403 (1.9%) were called active. 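Unnormalised raw counts per well; ratio z-scores behind the hit calls and whether each hit raises or lowers signal are not deposited.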 Unmarked entries are inactive. Not given: the amount of reagent."}
{"target gene": "GLS", "induced reporter light, run 1, well a": 74145, "induced reporter light, run 1, well b": 90590, "control promoter light, run 1, well a": 68890, "control promoter light, run 1, well b": 63520, "uninduced reporter light, run 1, well a": 6382}
{"target gene": "CG34005", "induced reporter light, run 1, well a": 41400, "induced reporter light, run 1, well b": 50145, "control promoter light, run 1, well a": 26830, "control promoter light, run 1, well b": 28080, "uninduced reporter light, run 1, well a": 8485}
{"target gene": "CG15877", "induced reporter light, run 1, well a": 1.01e5, "induced reporter light, run 1, well b": 1.18e5, "control promoter light, run 1, well a": 1.59e5, "control promoter light, run 1, well b": 1.61e5, "uninduced reporter light, run 1, well a": 5635}
{"target gene": "Cdc50", "induced reporter light, run 1, well a": 86700, "induced reporter light, run 1, well b": 85495, "control promoter light, run 1, well a": 84500, "control promoter light, run 1, well b": 71510, "uninduced reporter light, run 1, well a": 10625}
{"target gene": "CG7601", "induced reporter light, run 1, well a": 2.07e5, "induced reporter light, run 1, well b": 2.05e5, "control promoter light, run 1, well a": 2.67e5, "control promoter light, run 1, well b": 2.78e5, "uninduced reporter light, run 1, well a": 14578}
{"target gene": "CG30375", "induced reporter light, run 1, well a": 1.80e5, "induced reporter light, run 1, well b": 1.51e5, "control promoter light, run 1, well a": 1.63e5, "control promoter light, run 1, well b": 1.75e5, "uninduced reporter light, run 1, well a": 12950}
{"target gene": "SP2353", "induced reporter light, run 1, well a": 1.80e5, "induced reporter light, run 1, well b": 1.41e5, "control promoter light, run 1, well a": 1.59e5, "control promoter light, run 1, well b": 1.60e5, "uninduced reporter light, run 1, well a": 12175}
{"target gene": "Lst8", "induced reporter light, run 1, well a": 1.67e5, "induced reporter light, run 1, well b": 1.65e5, "control promoter light, run 1, well a": 2.03e5, "control promoter light, run 1, well b": 2.19e5, "uninduced reporter light, run 1, well a": 12785}
{"target gene": "Cyp305a1", "induced reporter light, run 1, well a": 1.10e5, "induced reporter light, run 1, well b": 1.21e5, "control promoter light, run 1, well a": 65545, "control promoter light, run 1, well b": 82740, "uninduced reporter light, run 1, well a": 10995}
{"target gene": "Dhc64C", "induced reporter light, run 1, well a": 1.12e5, "induced reporter light, run 1, well b": 1.27e5, "control promoter light, run 1, well a": 1.06e5, "control promoter light, run 1, well b": 49330, "uninduced reporter light, run 1, well a": 11655}
{"target gene": "CG16953", "induced reporter light, run 1, well a": 41660, "induced reporter light, run 1, well b": 41265, "control promoter light, run 1, well a": 45480, "control promoter light, run 1, well b": 50610, "uninduced reporter light, run 1, well a": 4720}
{"target gene": "CG6418", "induced reporter light, run 1, well a": 1.84e5, "induced reporter light, run 1, well b": 1.39e5, "control promoter light, run 1, well a": 1.51e5, "control promoter light, run 1, well b": 65995, "uninduced reporter light, run 1, well a": 15832}
